Measurements from article PMC11055677.

T1: FLAG-HA-POLD3, stably expressed in HeLa S3 (human) (UniProt Q15054)
T1 sequence: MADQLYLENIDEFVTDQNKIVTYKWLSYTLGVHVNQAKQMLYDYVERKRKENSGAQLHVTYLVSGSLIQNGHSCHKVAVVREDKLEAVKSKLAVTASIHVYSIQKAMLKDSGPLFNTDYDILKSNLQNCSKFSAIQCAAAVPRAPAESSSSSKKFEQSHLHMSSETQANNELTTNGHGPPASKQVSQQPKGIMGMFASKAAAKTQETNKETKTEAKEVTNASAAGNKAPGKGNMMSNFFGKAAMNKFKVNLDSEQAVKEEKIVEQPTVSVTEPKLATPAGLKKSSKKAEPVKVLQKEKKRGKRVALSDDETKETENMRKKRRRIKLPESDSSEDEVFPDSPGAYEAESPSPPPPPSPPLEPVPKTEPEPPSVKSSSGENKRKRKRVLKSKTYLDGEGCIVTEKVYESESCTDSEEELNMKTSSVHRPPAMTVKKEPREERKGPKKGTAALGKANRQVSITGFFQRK

T2: FLAG-HA-SPATA5, stably expressed in HeLa S3 (human) (UniProt Q8NB90)
T2 sequence: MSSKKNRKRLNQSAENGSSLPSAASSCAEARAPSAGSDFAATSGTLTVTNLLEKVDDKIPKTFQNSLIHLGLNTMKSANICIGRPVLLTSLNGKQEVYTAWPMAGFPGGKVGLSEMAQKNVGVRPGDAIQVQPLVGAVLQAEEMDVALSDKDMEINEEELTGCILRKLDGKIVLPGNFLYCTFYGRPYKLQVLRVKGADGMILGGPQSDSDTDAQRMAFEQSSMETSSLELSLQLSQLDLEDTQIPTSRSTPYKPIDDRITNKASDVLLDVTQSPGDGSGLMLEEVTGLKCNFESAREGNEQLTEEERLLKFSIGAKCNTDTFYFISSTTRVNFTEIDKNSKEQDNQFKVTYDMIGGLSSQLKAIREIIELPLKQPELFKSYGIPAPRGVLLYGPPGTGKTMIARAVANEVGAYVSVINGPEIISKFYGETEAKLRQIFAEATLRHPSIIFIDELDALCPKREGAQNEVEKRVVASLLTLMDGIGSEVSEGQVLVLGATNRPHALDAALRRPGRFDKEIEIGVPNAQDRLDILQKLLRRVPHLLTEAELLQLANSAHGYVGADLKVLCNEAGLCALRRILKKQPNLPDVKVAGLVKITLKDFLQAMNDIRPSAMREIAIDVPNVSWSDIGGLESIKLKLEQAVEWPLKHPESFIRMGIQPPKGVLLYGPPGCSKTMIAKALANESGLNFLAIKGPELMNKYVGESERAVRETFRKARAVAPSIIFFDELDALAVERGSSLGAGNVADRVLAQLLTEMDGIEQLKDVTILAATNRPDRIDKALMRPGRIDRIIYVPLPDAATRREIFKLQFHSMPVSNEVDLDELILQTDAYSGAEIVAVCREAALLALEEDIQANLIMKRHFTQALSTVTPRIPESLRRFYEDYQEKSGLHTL

T3: FLAG-HA-SPATA5L1, stably expressed in HeLa S3 (human) (UniProt Q9BVQ7)
T3 sequence: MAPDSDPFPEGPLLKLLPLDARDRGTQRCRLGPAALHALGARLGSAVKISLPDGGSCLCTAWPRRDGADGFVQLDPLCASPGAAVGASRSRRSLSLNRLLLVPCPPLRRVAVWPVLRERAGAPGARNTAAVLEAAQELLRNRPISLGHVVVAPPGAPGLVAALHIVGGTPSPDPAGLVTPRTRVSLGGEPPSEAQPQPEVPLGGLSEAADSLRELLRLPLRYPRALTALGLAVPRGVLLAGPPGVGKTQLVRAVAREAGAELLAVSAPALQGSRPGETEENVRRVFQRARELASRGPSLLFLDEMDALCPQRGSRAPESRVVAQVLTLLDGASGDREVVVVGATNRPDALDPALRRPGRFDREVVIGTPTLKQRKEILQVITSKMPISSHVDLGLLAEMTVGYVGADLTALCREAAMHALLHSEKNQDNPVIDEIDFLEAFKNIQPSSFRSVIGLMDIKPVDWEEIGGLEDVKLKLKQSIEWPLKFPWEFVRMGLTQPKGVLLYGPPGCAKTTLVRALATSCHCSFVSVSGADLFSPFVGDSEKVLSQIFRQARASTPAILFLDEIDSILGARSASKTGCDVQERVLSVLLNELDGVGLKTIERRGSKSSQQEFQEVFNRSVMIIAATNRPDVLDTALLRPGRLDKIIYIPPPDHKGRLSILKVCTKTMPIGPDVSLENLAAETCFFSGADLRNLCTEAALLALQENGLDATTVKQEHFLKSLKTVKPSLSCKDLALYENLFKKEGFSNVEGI


Experiments:
Test in all cases: affinity purification with mass spectrometry; FLAG-HA tandem purification from high-salt (400 mM KCl) nuclear extracts of HeLa S3 stably expressing the FH-tagged bait, dialysed to KETNG150; eluate analysed by mass spectrometry; empty vector as control
[1] = target: T1, FLAG-HA-POLD3, stably expressed in HeLa S3 (human)
[2] = target: T2, FLAG-HA-SPATA5, stably expressed in HeLa S3 (human)
[3] = target: T3, FLAG-HA-SPATA5L1, stably expressed in HeLa S3 (human)

binding [1]	binding [2]	binding [3]	Binder
binds	–	–	REV1 (HeLa S3 nuclear extract) (protein, UniProt Q9UBZ9 1-1251) MRRGGWRKRAENDGWETWGGYMAAKVQKLEEQFRSDAAMQKDGTSSTIFSGVAIYVNGYTDPSAEELRKLMMLHGGQYHVYYSRSKTTHIIATNLPNAKIKELKGEKVIRPEWIVESIKAGRLLSYIPYQLYTKQSSVQKGLSFNPVCRPEDPLPGPSNIAKQLNNRVNHIVKKIETENEVKVNGMNSWNEEDENNDFSFVDLEQTSPGRKQNGIPHPRGSTAIFNGHTPSSNGALKTQDCLVPMVNSVASRLSPAFSQEEDKAEKSSTDFRDCTLQQLQQSTRNTDALRNPHRTNSFSLSPLHSNTKINGAHHSTVQGPSSTKSTSSVSTFSKAAPSVPSKPSDCNFISNFYSHSRLHHISMWKCELTEFVNTLQRQSNGIFPGREKLKKMKTGRSALVVTDTGDMSVLNSPRHQSCIMHVDMDCFFVSVGIRNRPDLKGKPVAVTSNRGTGRAPLRPGANPQLEWQYYQNKILKGKAADIPDSSLWENPDSAQANGIDSVLSRAEIASCSYEARQLGIKNGMFFGHAKQLCPNLQAVPYDFHAYKEVAQTLYETLASYTHNIEAVSCDEALVDITEILAETKLTPDEFANAVRMEIKDQTKCAASVGIGSNILLARMATRKAKPDGQYHLKPEEVDDFIRGQLVTNLPGVGHSMESKLASLGIKTCGDLQYMTMAKLQKEFGPKTGQMLYRFCRGLDDRPVRTEKERKSVSAEINYGIRFTQPKEAEAFLLSLSEEIQRRLEATGMKGKRLTLKIMVRKPGAPVETAKFGGHGICDNIARTVTLDQATDNAKIIGKAMLNMFHTMKLNISDMRGVGIHVNQLVPTNLNPSTCPSRPSVQSSHFPSGSYSVRDVFQVQKAKKSTEEEHKEVFRAAVDLEISSASRTCTFLPPFPAHLPTSPDTNKAESSGKWNGLHTPVSVQSRLNLSIEVPSPSQLDQSVLEALPPDLREQVEQVCAVQQAESHGDKKKEPVNGCNTGILPQPVGTVLLQIPEPQESNSDAGINLIALPAFSQVDPEVFAALPAELQRELKAAYDQRQRQGENSTHQQSASASVPKNPLLHLKAAVKEKKRNKKKKTIGSPKRIQSPLNNKLLNSPAKTLPGACGSPQKLIDGFLKHEGPPAEKPLEELSASTSGVPGLSSLQSDPAGCVRPPAPNLAGAVEFNDVKTLLREWITTISDPMEEDILQVVKYCTDLIEEKDLEKLDLVIKYMKRLMQQSVESVWNMAFDFILDNVQVVLQQTYGSTLKVT
–	binds	binds	CINP (HeLa S3 nuclear extract) (protein, UniProt Q9BW66 1-212) MEAKTLGTVTPRKPVLSVSARKIKDNAADWHNLILKWETLNDAGFTTANNIANLKISLLNKDKIELDSSSPASKENEEKVCLEYNEELEKLCEELQATLDGLTKIQVKMEKLSSTTKGICELENYHYGEESKRPPLFHTWPTTHFYEVSHKLLEMYRKELLLKRTVAKELAHTGDPDLTLSYLSMWLHQPYVESDSRLHLESMLLETGHRAL
–	binds	binds	POLD3 (HeLa S3 nuclear extract) (protein, UniProt Q15054 1-466) MADQLYLENIDEFVTDQNKIVTYKWLSYTLGVHVNQAKQMLYDYVERKRKENSGAQLHVTYLVSGSLIQNGHSCHKVAVVREDKLEAVKSKLAVTASIHVYSIQKAMLKDSGPLFNTDYDILKSNLQNCSKFSAIQCAAAVPRAPAESSSSSKKFEQSHLHMSSETQANNELTTNGHGPPASKQVSQQPKGIMGMFASKAAAKTQETNKETKTEAKEVTNASAAGNKAPGKGNMMSNFFGKAAMNKFKVNLDSEQAVKEEKIVEQPTVSVTEPKLATPAGLKKSSKKAEPVKVLQKEKKRGKRVALSDDETKETENMRKKRRRIKLPESDSSEDEVFPDSPGAYEAESPSPPPPPSPPLEPVPKTEPEPPSVKSSSGENKRKRKRVLKSKTYLDGEGCIVTEKVYESESCTDSEEELNMKTSSVHRPPAMTVKKEPREERKGPKKGTAALGKANRQVSITGFFQRK
–	binds	binds	RFC1 (HeLa S3 nuclear extract) (protein, UniProt P35251 1-1148) MDIRKFFGVIPSGKKLVSETVKKNEKTKSDEETLKAKKGIKEIKVNSSRKEDDFKQKQPSKKKRIIYDSDSESEETLQVKNAKKPPEKLPVSSKPGKISRQDPVTYISETDEEDDFMCKKAASKSKENGRSTNSHLGTSNMKKNEENTKTKNKPLSPIKLTPTSVLDYFGTGSVQRSNKKMVASKRKELSQNTDESGLNDEAIAKQLQLDEDAELERQLHEDEEFARTLAMLDEEPKTKKARKDTEAGETFSSVQANLSKAEKHKYPHKVKTAQVSDERKSYSPRKQSKYESSKESQQHSKSSADKIGEVSSPKASSKLAIMKRKEESSYKEIEPVASKRKENAIKLKGETKTPKKTKSSPAKKESVSPEDSEKKRTNYQAYRSYLNREGPKALGSKEIPKGAENCLEGLIFVITGVLESIERDEAKSLIERYGGKVTGNVSKKTNYLVMGRDSGQSKSDKAAALGTKIIDEDGLLNLIRTMPGKKSKYEIAVETEMKKESKLERTPQKNVQGKRKISPSKKESESKKSRPTSKRDSLAKTIKKETDVFWKSLDFKEQVAEETSGDSKARNLADDSSENKVENLLWVDKYKPTSLKTIIGQQGDQSCANKLLRWLRNWQKSSSEDKKHAAKFGKFSGKDDGSSFKAALLSGPPGVGKTTTASLVCQELGYSYVELNASDTRSKSSLKAIVAESLNNTSIKGFYSNGAASSVSTKHALIMDEVDGMAGNEDRGGIQELIGLIKHTKIPIICMCNDRNHPKIRSLVHYCFDLRFQRPRVEQIKGAMMSIAFKEGLKIPPPAMNEIILGANQDIRQVLHNLSMWCARSKALTYDQAKADSHRAKKDIKMGPFDVARKVFAAGEETAHMSLVDKSDLFFHDYSIAPLFVQENYIHVKPVAAGGDMKKHLMLLSRAADSICDGDLVDSQIRSKQNWSLLPAQAIYASVLPGELMRGYMTQFPTFPSWLGKHSSTGKHDRIVQDLALHMSLRTYSSKRTVNMDYLSLLRDALVQPLTSQGVDGVQDVVALMDTYYLMKEDFENIMEISSWGGKPSPFSKLDPKVKAAFTRAYNKEAHLTPYSLQAIKASRHSTSPSLDSEYNEELNEDDSQSDEKDQDAIETDAMIKKKTKSSKPSKPEKDKEPRKGKGKSSKK
–	binds	binds	C1orf109 (HeLa S3 nuclear extract) (protein, UniProt Q9NX04 1-203) MTQDRPLLAVQEALKKCFPVVEEQQGLWQSALRDCQPLLSSLSNLAEQLQAAQNLRFEDVPALRAFPDLKERLRRKQLVAGDIVLDKLGERLAILLKVRDMVSSHVERVFQIYEQHADTVGIDAVLQPSAVSPSVADMLEWLQDIERHYRKSYLKRKYLLSSIQWGDLANIQALPKAWDRISKDEHQDLVQDILLNVSFFLEE

No constants are given. Whether binding was seen depends on the method and setting. In cells and extracts the contact can be indirect. Here binding means that the protein was enriched with, or labelled near, the bait; the list need not be complete. Tags and fused reporters may be left off the sequences shown.
